No constants are given. Whether binding was seen depends on the method and setting. In cells and extracts the contact can be indirect. For some assays here: Binding can be weak; no strength is given. Sequences can lack the tags named with a protein.
Experiments:
[1] = target: T1, amino terminal enhancer of Split (AES), HA tagged (human) (UniProt Q08117); test: co-IP; cytosolic fraction (50 µg) of HEK 293T cells co-transfected with AES-HA and a GFP-LRP6-ICD construct, 48 h; anti-HA antibody on M-280 sheep anti-mouse magnetic beads, 4°C, 3 h, immunoprecipitation buffer; washed with high salt PBS (350 mM NaCl); blot with anti-GFP
T1 sequence: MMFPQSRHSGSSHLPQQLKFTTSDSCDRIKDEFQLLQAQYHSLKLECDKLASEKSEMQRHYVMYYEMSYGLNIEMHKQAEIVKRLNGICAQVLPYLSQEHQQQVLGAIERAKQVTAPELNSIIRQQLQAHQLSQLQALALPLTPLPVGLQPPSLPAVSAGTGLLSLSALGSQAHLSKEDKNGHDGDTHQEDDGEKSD

Protein sequences, listed by entry. Tags and fused reporters are not part of them. Lines headed by an entry give the natural chain unless they say otherwise; changes in a name come on top.
UniProt O75581: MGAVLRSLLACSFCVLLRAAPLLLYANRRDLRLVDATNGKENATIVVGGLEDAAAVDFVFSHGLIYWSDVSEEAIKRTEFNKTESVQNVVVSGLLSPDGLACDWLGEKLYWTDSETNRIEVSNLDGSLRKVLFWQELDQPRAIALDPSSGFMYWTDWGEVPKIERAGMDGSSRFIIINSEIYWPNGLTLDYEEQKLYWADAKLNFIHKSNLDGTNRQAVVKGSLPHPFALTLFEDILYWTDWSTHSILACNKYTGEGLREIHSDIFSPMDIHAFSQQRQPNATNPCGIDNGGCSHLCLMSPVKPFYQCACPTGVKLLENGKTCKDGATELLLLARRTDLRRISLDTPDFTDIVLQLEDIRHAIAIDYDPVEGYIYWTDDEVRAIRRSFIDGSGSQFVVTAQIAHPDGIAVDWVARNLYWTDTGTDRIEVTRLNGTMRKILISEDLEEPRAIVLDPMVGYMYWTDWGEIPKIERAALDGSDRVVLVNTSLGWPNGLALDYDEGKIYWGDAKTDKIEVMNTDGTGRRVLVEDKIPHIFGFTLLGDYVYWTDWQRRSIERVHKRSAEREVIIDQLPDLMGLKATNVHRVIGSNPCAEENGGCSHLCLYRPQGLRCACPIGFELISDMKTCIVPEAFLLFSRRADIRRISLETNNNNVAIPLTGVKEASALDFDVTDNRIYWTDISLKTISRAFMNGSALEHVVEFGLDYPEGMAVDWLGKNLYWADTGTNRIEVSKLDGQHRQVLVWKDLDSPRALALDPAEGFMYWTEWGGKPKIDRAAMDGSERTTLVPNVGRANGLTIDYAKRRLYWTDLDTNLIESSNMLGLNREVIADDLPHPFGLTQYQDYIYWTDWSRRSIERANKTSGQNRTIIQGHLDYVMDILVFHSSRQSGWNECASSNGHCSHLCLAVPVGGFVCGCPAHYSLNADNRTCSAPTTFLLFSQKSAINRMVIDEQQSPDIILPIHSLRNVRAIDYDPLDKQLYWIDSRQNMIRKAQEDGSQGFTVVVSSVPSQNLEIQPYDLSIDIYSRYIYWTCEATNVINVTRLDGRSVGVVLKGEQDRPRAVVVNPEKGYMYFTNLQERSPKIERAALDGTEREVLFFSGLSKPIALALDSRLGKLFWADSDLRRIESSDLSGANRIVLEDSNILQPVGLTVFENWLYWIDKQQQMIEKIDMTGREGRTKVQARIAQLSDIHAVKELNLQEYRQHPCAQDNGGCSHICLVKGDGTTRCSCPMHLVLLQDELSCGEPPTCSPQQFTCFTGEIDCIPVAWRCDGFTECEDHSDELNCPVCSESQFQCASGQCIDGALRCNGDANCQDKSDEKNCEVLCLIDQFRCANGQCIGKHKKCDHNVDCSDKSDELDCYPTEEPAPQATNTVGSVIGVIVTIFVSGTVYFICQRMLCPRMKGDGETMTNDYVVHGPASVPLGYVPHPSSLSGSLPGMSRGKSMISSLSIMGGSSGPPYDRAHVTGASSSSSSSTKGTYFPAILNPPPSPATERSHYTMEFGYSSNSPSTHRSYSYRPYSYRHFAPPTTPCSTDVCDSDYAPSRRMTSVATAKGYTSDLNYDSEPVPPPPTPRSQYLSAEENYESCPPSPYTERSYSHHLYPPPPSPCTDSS

[2] = target: T1, amino terminal enhancer of Split (AES), HA tagged (human); test: co-IP; nuclear fraction (50 µg) of HEK 293T cells co-transfected with AES-HA and a GFP-LRP6-ICD construct, 48 h; anti-HA antibody on M-280 sheep anti-mouse magnetic beads, 4°C, 3 h, immunoprecipitation buffer (0.5% NP-40, 150 mM NaCl, 10 mM Tris pH 7.4); washed with high salt PBS (350 mM NaCl); blot with anti-GFP

Question: With “GFP tagged wild type LRP6 intracellular domain (LRP6-ICD) (from UniProt O75581) (domain or fragment)” as the substance, how does the binding [1] read?
Answer: no binding (only in the cytosolic fraction)

Question: What about the binding [2] of the same substance?
Answer: binds

Reference: publication PMC2911377
